Tested on: PAH minipig model
Assay: Deposited lung dose (absorbing filters) in PAH minipig model and prediction of human dose and duration of effect
Type: in vivo, Göttingen minipig
Method: The anesthetized thromboxane A2 challenged PAH-minipig model (see experimental part C-2.1) is considered to be the most relevant and sensitive model for the prediction of the human minimal effective and effective doses (MED, ED). To determine effective LDs, experiments in minipigs were repeated with the difference that absorbing filters were attached at the end of the tubes to determine the deposited lung dose. […] Assuming a minimal effective ND of 3 μg/kg (5% reduction in PAP) the minimal effective deposited LD is considered as 0.15 μg/kg (see FIG. 1).
The resulting lung deposited doses in the minipig of 0.15, 0.5, 1.5 and 5 μg/kg were multiplied by 60 kg to achieve the lung dose in humans. Thus, the FPD reflecting the PAP reduction for a 60 kg human are calculated to be 9, 30, 90 and 300 μg.
Thus, via a direct up-scaling from minipig, the predictive MED (5% PAP reduction) for a human based on a 60 kg body weight is calculated to be 9 μg LDD, not considering protein binding within the respiratory tract. As a surrogate for unbound concentrations, which are the likely active concentrations in the lung, we considered respective differences in fractions unbound in plasma of minipig and human. This consideration results in a minimum effective lung dose (LD) for a 60 kg participant of 41 μg LDD for the assumed 5% reduction on PAP. Consequently, the predictive minimal human effective dose is in the range from 9 μg LDD to 41 μg LDD based on a 60 kg body weight (see FIG. 2).
This translation was also conducted for effective doses (effective PAP reduction>five up to 35 percent for longer time periods up to the complete observation period of 4 hrs) based on the relative lung deposited doses in minipigs as listed in Table 2.
For DPI products, it is assumed that the fine particle dose (FPD) is basically equivalent to the human lung deposited dose. […]

O=C(O)c1ccc(CCN(CCc2ccccc2OCc2ccc(-c3ccc(C(F)(F)F)cc3)cc2Cl)[C@H]2CCCc3nc(C(=O)O)ccc32)cc1 [comparative example 11, (5S)-5-{[2-(4-carboxyphenyl)ethyl][2-(2-{[3-chloro-4′-(trifluoromethyl)[biphenyl]-4-yl]methoxy}phenyl)ethyl]amino}-5,6,7,8-tetrahydroquinoline-2-carboxylic acid]
relative lung deposited dose (100 μg/kg nominal dose): ~5 µg/kg | nebulization efficiency (absorbing filters at the end of the tubes): 3-6 % of nominally applied doses | mean nebulization efficiency (aerosol fraction deposited on the filters) (arithmetic mean of all filter experiments): 5%

From US12138256B2, “Treatment of cardiopulmonary disorders” (Bayer Aktiengesellschaft, priority 2021, dated 2024)
